Results are given in words; binding and its absence hold for the method and conditions named. Binding can be weak; no strength is given.
Key:
[1] = biological target: pre-S region E. coli recombinant protein (hepatitis B virus); test: chemiluminescent ELISA, antigen coated
[2] = biological target: large surface protein of hepatitis B virus (LHBS), full-length (hepatitis B virus); test: sandwich ELISA on pooled HBsAg(+) sera, pre-S1 antibody coated

B1: pre-S1 monoclonal antibody (antibody, V domains shown)
VH: DVQLQESGPGLVKPSQSLSLTCTVTGYSITSDYAWNWIRQFPGNKLEWMGYIRYSGTTNYNPSLKSRISITRDTSKNQFFLQLNSVTTEDTATYYCARGGTGLTYWGQGTLVTVSA
VL: NIVMTQSPKSMSMSLGERVTLTCKASENVGTYVSWYQQKPEQSPKLLIYGASNRNTGVPDRFTGSGPATDFTLTISSVQAEDLADYLCGQTYNYPFTFGAGTKLELK
[1]
  binding: binds
[2]
  binding: binds

— patent publication US20230018242A1
